# Data from PubChem BioAssay AID2685 (National Center for Advancing Translational Sciences (NCATS), 2010).
# The other results are listed elsewhere or left out. Shown are side measurements of this screen, not its main read-out; they come without a call. Most of these compounds were active or inconclusive in the main read-out, so they are no random draw. Potencies come from curve fits of mixed quality, noted in brackets.
# Assay: qHTS Assay for Lipid Storage Modulators in Drosophila S3 Cells;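 on cell number change: cells counted by Cell Tracker Red CMTPX staining in the red channel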
# Details: BODIPY lipid droplet fluorescence, 18-24 h; for cell number change: measured here: cell count max response, cells fed with added oleic acid
# How it was run: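 Laser-scanning cytometry quantifies lipid droplet accumulation (500–530 nm total intensity; droplet/cell object ratio) in oleic acid-fed (400 uM added) Drosophila S3 cells treated with a concentration series. 20 uM Triacsin C defined 100% inhibition.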
# [1] = measured here: cell number channel AC50, cells fed with added oleic acid
# [2] = measured here: lipid fluorescence (Fed channel) AC50, cells fed with added oleic acid
Compound,cell number change [%],AC50 [1],AC50 [2]
Cc1ccc(C(=O)ONc2ccc(N=O)cc2)cc1,-68.9,"20.6 µM [falling, single point]","0.00461 µM [falling, full curve, poor fit]"
CCN(C(=O)/C=C/c1ccc2c(c1)OCO2)c1ccccc1,-33.3,"29.1 µM [falling, single point]","0.0326 µM [rising, full curve, poor fit]"
CCCNC(=O)C1(CC2CC(c3ccccc3)=NO2)CCN(C(=O)c2ccccc2)CC1 (stereo not given),-11.2,"6.51 µM [falling, single point]","32.6 µM [falling, single point]"
N#Cc1ccc(CSc2nnc(-c3ccncc3)n2CCc2ccccc2)cc1,-7.83,,
Cc1cc(C)c2c(=O)[nH]c(SCC(=O)c3ccc(F)c(C)c3)nc2n1,-21.1,,"0.82 µM [falling, full curve]"
COc1cc2c(cc1OC)CN(C(=O)Cc1c(F)cccc1Cl)CC2,,,"6.51 µM [falling, single point]"
NC(=O)[C@@H]1CCCN1C(=O)c1ccc2oc(CCc3ccccc3)nc2c1,-3.76,,"6.51 µM [rising, single point]"
O=C(Cc1ccc(Cl)cc1)Nc1ccc(N2CCN(C(=O)c3ccco3)CC2)c(Cl)c1,,,"13 µM [falling, partial curve, poor fit]"
COc1cccc(OCC(=O)NNC(=S)Nc2ccc(Cl)cc2Cl)c1,22,,"6.51 µM [rising, single point]"
N#CC(C(=O)NC1CC1)c1nc2ccccc2nc1N1CCCC1 (stereo not given),3.28,,
Cc1ccc(-c2csc3nc4c5ccccc5c(NCCCN5CCOCC5)nn4c(=O)c23)cc1,7.32,"2.06 µM [rising, partial curve, poor fit]",
COc1ccccc1C(CC(=O)N1CCCC1)c1ccc2c(c1)OCO2 (stereo not given),-36.3,"29.1 µM [falling, single point]","23.1 µM [falling, single point]"
Cc1ccc(N2CCN(C(=O)c3cc(COc4c(C)cccc4C)on3)CC2)c(C)c1,43.7,"32.6 µM [rising, single point]","2.31 µM [falling, single point]"
CC(=O)N1CCc2c(sc3c2c(=O)n(-c2ccccc2)c(=O)n3CC(=O)NCC2CCCO2)C1 (stereo not given),11.5,,"3.26 µM [rising, full curve]"
O=C(NCc1ccc(Cl)c(Cl)c1)c1cccnc1,2.87,,"7.31 µM [falling, single point]"
O=C(COc1ccccc1)Nc1nc2cc3c(cc2s1)OCCO3,28.5,,"1 µM [rising, full curve]"
CCOc1ccc(NC(=O)CN(c2ccc([N+](=O)[O-])cc2)S(=O)(=O)c2ccccc2)cc1,33.4,"0.13 µM [rising, full curve, poor fit]","29.1 µM [rising, single point]"
CC(O)c1ccc2c(c1)OCCOCCN(C)CCOCCO2 (stereo not given),-21.7,,"1.16 µM [falling, full curve, poor fit]"
Cc1cc(=O)oc2cc(OCc3ccc(C(=O)N4CCN(c5ccc([N+](=O)[O-])cc5)CC4)cc3)ccc12,70.6,"18.4 µM [rising, single point]","16.4 µM [rising, single point]"
CC(C)CN(C(=O)CCNC(=O)c1ccccc1Cl)C1CCS(=O)(=O)C1 (stereo not given),-4.39,,"2.06 µM [rising, partial curve, poor fit]"
Cc1ccccc1S(=O)(=O)N1[C@@H](c2cccc(Cl)c2)C(C(=O)O)=CC[C@H]1c1ccc(Cl)cc1,0.726,,"0.517 µM [rising, full curve, poor fit]"
Cc1ccc(-n2nc(C)c(NS(=O)(=O)c3ccccc3)c2C)cc1C,47.6,"0.366 µM [rising, full curve]","2.06 µM [rising, partial curve]"
Cc1ccc(-c2ccc(=O)n(Cc3ccc(F)cc3)n2)cc1,-48.9,"16.4 µM [falling, partial curve]","29.1 µM [falling, single point]"
O=C(c1cccnc1)N1C2C=CC(C2)C1(C(F)(F)F)C(F)(F)F (stereo not given),,"0.092 µM [rising, full curve, poor fit]",
O=C(CCC(=O)OCc1cccc([N+](=O)[O-])c1)Nc1ccccc1Cl,-19.9,,"8.91 µM [falling, partial curve]"
COc1ccc(C(=O)N2CCC(NC(=O)C(Cc3ccccc3OC)NC(C)=O)CC2)cc1 (stereo not given),8.87,,"29.1 µM [rising, single point]"
N/C(=N\OC(=O)c1cccc(C(F)(F)F)c1)c1cnccn1,,,"6.51 µM [rising, partial curve]"

Compound,cell number change [%],AC50 [1],AC50 [2]
O=C(CCc1nc2ccccc2c(=O)[nH]1)NCCN1C(=O)S/C(=C\c2ccccc2Cl)C1=O,33.8,"9.2 µM [rising, partial curve]","9.2 µM [rising, partial curve]"
CCC(C)[C@H](NC(=O)N1CC(=O)Nc2ccccc21)C(=O)N[C@@H](Cc1c[nH]c2ccccc12)C(=O)O (stereo not given in full),38.8,"29.1 µM [rising, single point]",
Cc1cc2ccccn2c1C(=O)c1cccc(S(=O)(=O)N2CCOCC2)c1,15.2,,"0.103 µM [falling, full curve, poor fit]"
CCOC(=O)c1c(NC(=O)COc2ncnc3ccccc23)sc(C)c1C,-18.1,"3.66 µM [rising, single point]",
CC(NC(=O)C1(c2cccs2)CCOCC1)c1ccccc1 (stereo not given),-37.8,"29.1 µM [falling, single point]",
Oc1ccc(-c2csc(-c3cccnc3)n2)c(O)c1,-46.3,"1.3 µM [falling, full curve]","29.1 µM [falling, single point]"
O=C(CCc1nc2ccccc2c(=O)[nH]1)N1CCN(S(=O)(=O)c2ccc(Cl)c(C(F)(F)F)c2)CC1,8.88,"1.64 µM [rising, partial curve, poor fit]","2.31 µM [rising, partial curve]"
Cn1c(N)c(C(=O)COC(=O)c2cc(C3CC3)nc3ccccc23)c(=O)n(C)c1=O,-0.968,,"4.11 µM [rising, single point]"
CC1CCN(c2ccc(NC(=O)c3cccnc3Cl)cc2)CC1,4.5,,"0.184 µM [falling, full curve, poor fit]"
Cc1cccc(-n2nnnc2SCn2nnc3ccccc3c2=O)c1,-33.7,"0.651 µM [falling, full curve, poor fit]","1.46 µM [rising, partial curve, poor fit]"
Cc1nc2ccc(C(=O)OCc3nnc(-c4ccccc4)o3)cc2nc1C,-22.1,,"29.1 µM [falling, single point]"
N#CC1=C(N)N(c2ccc(Cl)c(Cl)c2)C(=O)C1,,"6.51 µM [falling, single point]",
CCOc1ccc(OCC(=O)N2CCOCC2)cc1,-22.2,,"6.51 µM [falling, single point]"
Cc1ccc(N2CC(C(=O)NCCC3=CCCCC3)CC2=O)cc1 (stereo not given),-0.155,"2.91 µM [falling, single point]","5.8 µM [falling, full curve]"
COc1ccc(OC)c(S(=O)(=O)n2ccnc2C)c1,50,"3.66 µM [rising, partial curve]","1.84 µM [rising, partial curve]"
c1ccc(C[n+]2cccc3c4ccccc4ccc32)cc1,-12.5,,"6.51 µM [falling, single point]"
COCCNC(=O)c1ccc2c3n(nc2c1)-c1ccc(C)cc1CO3,17.3,,"0.82 µM [rising, full curve]"
O=C(COC(=O)C12CC3CC(CC(C3)C1)C2)Nc1ccc(OC(F)F)cc1,-39.8,"18.4 µM [falling, partial curve, poor fit]",
OC1CCN(Cc2cn(Cc3ccccc3)nc2-c2cc3ccccc3o2)CC1,15.3,,"18.4 µM [rising, partial curve]"
Cc1nnc(SCC(=O)Nc2cc(S(=O)(=O)N3CCCC3)ccc2Cl)s1,-26.6,,"20.6 µM [falling, partial curve, poor fit]"
CC(C)(CNC(=S)NCCc1ccccc1)CNC(=S)NCCc1ccccc1,-18.1,,"29.1 µM [falling, single point]"
COC(=O)CN1C(=O)C(C)(C)Oc2ccc(C(=O)Nc3cccc(OC)c3)cc21,-14.5,,"0.631 µM [rising, full curve]"
Cc1ccc(-n2c(SCC(=O)NC3CCS(=O)(=O)C3)nc3ccccc3c2=O)cc1C (stereo not given),26.7,,"0.651 µM [rising, single point]"
CCN(CC(=O)Nc1cc(C)c(Cl)cc1OC)CC(=O)NC1CCS(=O)(=O)C1 (stereo not given),,,"3.26 µM [rising, single point]"
CN(C(=O)COC(=O)C1c2ccccc2Oc2ccccc21)C1CCS(=O)(=O)C1 (stereo not given),2.73,,
Cc1ccccc1OCCn1c(=O)oc2ccccc21,7.19,,"5.17 µM [rising, partial curve]"
COc1ccc(/C=N/Nc2nc(NCc3ccco3)nc(Nc3ccc(OC)cc3)n2)cc1,33.1,"4.61 µM [rising, partial curve]","29.1 µM [rising, single point]"

# Another view of some results above.
Compound | cell number change [%] | AC50 [1] | AC50 [2]
CC(C)(CNC(=S)NCCc1ccccc1)CNC(=S)NCCc1ccccc1 | -18.1 |  | 29.1 µM [falling, single point]
Cc1ccc(-n2c(SCC(=O)NC3CCS(=O)(=O)C3)nc3ccccc3c2=O)cc1C (stereo not given) | 26.7 |  | 0.651 µM [rising, single point]
CCN(CC(=O)Nc1cc(C)c(Cl)cc1OC)CC(=O)NC1CCS(=O)(=O)C1 (stereo not given) |  |  | 3.26 µM [rising, single point]
